Earlier results, collected in patent US20250115648A1 (priority 2013, published 2025).

Conditions: cited from earlier work

O=C([O-])COc1cc(NC(=O)c2ccc3c(c2)C(=O)OC32c3cc(Cl)c([O-])cc3Oc3cc([O-])c(Cl)cc32)ccc1N(CC(=O)[O-])CC(=O)[O-].[K+].[K+].[K+].[K+].[K+] [Magnesium Green]
Peak Abs. (peak absorbance wavelength of exemplary fluorescent reporter molecule): 506 nanometers | Peak Em. (peak emission wavelength of exemplary fluorescent reporter molecule): 530 nanometers
